Assay results reported in the supplement of paper PMC10849652.
The other results are listed elsewhere or left out.

Chains of the proteins cited; added tags and fusions are not shown. Lines headed by an entry give the natural chain unless they say otherwise; changes in a name come on top.
UniProt P55196: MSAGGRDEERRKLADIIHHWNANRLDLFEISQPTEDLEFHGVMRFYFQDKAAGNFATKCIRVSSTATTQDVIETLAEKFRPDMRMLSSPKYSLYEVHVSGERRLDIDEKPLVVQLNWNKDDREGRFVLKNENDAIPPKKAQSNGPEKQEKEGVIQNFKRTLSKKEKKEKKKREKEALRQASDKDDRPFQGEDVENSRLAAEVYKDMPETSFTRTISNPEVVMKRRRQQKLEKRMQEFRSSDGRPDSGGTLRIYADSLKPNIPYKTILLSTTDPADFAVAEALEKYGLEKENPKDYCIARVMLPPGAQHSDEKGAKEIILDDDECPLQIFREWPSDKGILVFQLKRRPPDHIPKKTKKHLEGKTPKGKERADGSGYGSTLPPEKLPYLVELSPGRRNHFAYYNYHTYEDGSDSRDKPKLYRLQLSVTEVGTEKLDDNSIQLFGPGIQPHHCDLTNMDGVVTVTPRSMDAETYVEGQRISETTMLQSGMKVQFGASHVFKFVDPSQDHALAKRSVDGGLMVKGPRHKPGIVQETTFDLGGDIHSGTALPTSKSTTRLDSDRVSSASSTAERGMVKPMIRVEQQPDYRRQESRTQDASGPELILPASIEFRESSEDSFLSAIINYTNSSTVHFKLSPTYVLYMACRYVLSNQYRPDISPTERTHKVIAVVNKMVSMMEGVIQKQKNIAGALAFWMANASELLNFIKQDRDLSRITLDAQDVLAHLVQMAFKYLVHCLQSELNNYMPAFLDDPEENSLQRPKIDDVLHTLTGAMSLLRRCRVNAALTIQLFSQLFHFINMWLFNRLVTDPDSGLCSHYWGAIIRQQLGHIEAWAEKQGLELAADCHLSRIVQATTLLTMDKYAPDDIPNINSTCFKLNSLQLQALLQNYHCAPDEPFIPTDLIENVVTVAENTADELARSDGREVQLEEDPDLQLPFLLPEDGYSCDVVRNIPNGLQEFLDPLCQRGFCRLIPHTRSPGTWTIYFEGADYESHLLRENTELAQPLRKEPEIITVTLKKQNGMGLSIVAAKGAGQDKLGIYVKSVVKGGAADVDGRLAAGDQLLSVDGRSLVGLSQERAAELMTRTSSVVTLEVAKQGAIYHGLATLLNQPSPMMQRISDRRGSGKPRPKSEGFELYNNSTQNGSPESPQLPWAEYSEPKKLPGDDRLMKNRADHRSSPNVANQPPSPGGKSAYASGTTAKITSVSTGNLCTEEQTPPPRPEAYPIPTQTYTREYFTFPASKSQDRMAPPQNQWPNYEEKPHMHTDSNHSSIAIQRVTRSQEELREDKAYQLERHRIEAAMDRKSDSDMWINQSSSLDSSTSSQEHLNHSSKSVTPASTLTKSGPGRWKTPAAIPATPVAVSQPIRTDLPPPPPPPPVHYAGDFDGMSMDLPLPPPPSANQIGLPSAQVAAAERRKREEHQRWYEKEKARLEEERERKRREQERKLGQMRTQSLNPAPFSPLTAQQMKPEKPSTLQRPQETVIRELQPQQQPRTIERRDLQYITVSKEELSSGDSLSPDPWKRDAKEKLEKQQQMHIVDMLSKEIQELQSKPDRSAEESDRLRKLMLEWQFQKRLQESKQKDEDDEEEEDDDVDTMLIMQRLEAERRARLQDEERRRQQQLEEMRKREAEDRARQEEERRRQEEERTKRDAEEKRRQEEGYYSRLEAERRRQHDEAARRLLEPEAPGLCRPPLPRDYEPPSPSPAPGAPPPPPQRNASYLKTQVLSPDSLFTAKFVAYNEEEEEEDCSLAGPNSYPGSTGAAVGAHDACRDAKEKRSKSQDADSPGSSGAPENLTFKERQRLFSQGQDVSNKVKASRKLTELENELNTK
UniProt Q9Y4W6: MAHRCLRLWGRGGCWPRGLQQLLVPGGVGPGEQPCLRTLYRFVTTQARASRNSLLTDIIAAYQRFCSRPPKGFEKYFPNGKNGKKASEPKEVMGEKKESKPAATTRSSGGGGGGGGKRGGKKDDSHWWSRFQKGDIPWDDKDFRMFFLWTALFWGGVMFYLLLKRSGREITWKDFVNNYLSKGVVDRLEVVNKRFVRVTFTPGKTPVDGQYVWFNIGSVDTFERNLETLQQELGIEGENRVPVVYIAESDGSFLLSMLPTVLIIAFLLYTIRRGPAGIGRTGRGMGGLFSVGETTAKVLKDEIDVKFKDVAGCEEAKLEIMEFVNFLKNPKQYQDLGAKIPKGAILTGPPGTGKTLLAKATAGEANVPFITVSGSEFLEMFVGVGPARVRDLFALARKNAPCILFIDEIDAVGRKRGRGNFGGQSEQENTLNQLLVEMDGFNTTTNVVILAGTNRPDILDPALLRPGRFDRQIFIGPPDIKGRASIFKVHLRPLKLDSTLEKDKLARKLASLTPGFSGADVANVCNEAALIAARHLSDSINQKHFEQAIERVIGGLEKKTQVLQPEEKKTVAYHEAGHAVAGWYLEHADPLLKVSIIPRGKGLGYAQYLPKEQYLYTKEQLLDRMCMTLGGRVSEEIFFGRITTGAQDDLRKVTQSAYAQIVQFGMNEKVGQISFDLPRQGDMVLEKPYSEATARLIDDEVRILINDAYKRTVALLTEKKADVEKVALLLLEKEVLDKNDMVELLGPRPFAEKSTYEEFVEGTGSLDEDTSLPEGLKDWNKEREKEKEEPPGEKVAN
UniProt P35611: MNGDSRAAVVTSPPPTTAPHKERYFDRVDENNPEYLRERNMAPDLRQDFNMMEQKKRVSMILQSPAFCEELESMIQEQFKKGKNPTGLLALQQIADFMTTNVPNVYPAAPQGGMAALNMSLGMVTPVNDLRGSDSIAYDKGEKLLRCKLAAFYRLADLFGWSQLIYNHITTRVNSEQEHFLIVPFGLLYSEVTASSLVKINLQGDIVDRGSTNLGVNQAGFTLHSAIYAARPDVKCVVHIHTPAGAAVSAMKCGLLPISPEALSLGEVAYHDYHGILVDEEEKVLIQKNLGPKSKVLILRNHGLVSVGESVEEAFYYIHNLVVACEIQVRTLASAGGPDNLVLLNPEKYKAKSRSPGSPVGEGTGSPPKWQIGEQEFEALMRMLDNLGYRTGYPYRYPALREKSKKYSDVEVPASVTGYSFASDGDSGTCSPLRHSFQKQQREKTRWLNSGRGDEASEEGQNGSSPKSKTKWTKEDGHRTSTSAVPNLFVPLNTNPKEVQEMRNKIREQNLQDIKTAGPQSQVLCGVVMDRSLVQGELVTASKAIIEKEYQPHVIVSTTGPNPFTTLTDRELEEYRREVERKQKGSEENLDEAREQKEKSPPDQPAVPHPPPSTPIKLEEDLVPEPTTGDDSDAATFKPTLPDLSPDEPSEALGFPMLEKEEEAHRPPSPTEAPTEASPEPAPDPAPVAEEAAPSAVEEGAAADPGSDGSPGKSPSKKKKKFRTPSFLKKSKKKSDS
UniProt P00568: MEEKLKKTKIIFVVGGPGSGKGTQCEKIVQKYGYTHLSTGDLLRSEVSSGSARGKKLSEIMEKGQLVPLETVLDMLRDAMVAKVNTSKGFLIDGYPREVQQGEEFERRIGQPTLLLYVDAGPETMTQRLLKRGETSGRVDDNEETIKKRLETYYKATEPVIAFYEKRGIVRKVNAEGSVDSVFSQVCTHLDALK
UniProt P02771: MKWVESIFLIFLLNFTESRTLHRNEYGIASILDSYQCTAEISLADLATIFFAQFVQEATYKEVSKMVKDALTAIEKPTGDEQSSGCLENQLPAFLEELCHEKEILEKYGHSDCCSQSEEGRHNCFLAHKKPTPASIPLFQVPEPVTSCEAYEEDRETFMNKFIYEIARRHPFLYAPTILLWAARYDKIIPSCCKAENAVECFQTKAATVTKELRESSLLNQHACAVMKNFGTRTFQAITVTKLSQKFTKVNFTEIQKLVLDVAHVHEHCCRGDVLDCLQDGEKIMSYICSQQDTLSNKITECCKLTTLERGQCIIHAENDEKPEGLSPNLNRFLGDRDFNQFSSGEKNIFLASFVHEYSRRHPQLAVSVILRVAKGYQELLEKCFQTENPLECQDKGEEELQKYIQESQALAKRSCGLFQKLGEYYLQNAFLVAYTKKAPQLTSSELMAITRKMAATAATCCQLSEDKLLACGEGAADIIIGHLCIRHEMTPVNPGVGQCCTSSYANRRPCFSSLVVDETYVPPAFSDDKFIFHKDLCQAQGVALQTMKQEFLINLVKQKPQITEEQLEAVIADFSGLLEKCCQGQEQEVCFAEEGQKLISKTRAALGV
UniProt P30520: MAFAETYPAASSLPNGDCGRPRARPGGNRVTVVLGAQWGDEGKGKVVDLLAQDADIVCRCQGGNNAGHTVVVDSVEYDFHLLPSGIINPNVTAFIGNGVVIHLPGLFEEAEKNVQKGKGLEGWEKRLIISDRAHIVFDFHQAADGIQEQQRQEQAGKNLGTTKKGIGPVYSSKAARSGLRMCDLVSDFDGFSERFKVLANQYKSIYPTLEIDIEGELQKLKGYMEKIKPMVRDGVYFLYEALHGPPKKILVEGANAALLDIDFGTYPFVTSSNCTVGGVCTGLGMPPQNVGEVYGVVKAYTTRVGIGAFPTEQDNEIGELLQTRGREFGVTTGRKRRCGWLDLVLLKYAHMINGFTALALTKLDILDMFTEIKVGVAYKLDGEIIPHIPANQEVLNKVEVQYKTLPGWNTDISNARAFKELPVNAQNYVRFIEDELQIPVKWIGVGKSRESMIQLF
UniProt Q96BJ3: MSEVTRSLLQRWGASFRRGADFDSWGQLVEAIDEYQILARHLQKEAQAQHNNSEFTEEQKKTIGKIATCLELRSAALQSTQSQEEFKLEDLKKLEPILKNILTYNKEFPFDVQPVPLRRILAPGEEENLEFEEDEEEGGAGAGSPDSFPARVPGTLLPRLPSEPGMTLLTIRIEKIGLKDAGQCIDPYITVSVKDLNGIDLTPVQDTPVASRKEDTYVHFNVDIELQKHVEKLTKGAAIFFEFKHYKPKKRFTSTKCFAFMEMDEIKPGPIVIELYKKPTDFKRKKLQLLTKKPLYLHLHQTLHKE
UniProt P14550: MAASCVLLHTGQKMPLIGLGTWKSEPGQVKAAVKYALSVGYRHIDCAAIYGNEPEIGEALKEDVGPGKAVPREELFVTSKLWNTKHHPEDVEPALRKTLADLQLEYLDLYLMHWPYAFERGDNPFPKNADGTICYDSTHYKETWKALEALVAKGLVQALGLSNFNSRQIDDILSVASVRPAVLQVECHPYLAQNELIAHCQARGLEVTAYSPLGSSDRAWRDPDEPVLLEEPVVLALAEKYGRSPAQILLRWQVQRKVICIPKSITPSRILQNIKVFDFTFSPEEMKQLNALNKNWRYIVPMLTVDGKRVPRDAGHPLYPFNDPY
UniProt Q8N142: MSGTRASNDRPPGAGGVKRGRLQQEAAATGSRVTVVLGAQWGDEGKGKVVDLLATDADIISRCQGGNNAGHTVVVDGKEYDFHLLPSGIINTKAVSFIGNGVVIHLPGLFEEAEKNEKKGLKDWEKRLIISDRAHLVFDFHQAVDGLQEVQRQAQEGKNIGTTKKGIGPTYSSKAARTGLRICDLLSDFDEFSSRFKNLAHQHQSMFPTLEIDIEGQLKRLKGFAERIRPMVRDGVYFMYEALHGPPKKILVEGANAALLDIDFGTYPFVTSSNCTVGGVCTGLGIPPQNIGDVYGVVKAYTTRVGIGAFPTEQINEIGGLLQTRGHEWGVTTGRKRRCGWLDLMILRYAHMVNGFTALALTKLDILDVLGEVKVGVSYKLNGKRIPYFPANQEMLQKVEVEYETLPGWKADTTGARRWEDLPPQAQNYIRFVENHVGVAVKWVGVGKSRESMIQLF
UniProt P09972: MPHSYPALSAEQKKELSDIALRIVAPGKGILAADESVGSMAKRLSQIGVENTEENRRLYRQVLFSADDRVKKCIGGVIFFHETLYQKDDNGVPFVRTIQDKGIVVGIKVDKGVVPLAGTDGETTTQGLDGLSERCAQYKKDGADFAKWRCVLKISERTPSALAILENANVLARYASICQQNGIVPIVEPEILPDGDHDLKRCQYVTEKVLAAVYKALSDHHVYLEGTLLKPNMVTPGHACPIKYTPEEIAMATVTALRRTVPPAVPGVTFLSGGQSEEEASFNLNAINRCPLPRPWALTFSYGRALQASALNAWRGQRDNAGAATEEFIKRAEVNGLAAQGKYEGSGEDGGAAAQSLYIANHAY
UniProt P17707: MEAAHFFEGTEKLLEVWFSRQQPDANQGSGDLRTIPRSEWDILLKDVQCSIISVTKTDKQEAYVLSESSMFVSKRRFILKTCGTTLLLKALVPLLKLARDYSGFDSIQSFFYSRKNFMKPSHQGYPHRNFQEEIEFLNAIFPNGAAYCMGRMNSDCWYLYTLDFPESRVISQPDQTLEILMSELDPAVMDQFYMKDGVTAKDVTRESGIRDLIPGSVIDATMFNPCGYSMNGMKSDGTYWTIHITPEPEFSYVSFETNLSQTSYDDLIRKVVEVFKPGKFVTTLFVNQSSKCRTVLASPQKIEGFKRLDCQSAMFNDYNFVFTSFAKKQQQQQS

Tests used:
Experiment in all cases: log2 fold change, soluble protein after heating vs DMSO (PISA); higher = thermal stabilisation; K562 cells, 10 uM, 30 min; active = over 0.2 and 3.5 SD of the protein, either way, in both replicates (recomputed)
[1] = compound: NC(=O)Nc1cc(-c2cccc(F)c2)sc1C(=O)N[C@H]1CCCNC1
Summary of the method: (§1)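 K562 cells at 2×10^6 cells/mL were treated with 10 μM compound for 30 min. Aliquots were heated for 3 min across 48°C-58°C, pooled, and extracted in PBS with 0.5% NP-40 at 4°C; soluble protein was the supernatant after 21,000xg for 90 min. Soluble protein was quantified by TMTpro 16plex LC-MS/MS with channel sums equalised, and reported as log2 fold change in thermal stability against DMSO controls, with values from duplicates.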

[2] = compound: NC(=O)c1cnc(N[C@@H]2CCCC[C@@H]2N)nc1Nc1cccc(-n2nccn2)c1
Summary of the method: as §1

[3] = compound: NC1(c2ccc(-c3nc4ccn5c(=O)[nH]nc5c4cc3-c3ccccc3)cc2)CCC1
Summary of the method: as §1

[4] = compound: NCC(=O)Nc1ccc(-n2nc(C(F)(F)F)cc2-c2ccc3c(ccc4ccccc43)c2)cc1
Summary of the method: as §1

[5] = compound: Nc1ccccc1NC(=O)c1ccc(CNC(=O)OCc2cccnc2)cc1 [entinostat]
Summary of the method: as §1

[6] = compound: O=C(CCCCCCC(=O)Nc1ccccc1)NO [vorinostat]
Summary of the method: as §1

[7] = compound: O=C(CCCCCCNC(=O)c1cnc(N(c2ccccc2)c2ccccc2Cl)nc1)NO [citarinostat]
Summary of the method: as §1

[8] = compound: O=C(O)c1ccc2c(c1)nc(Nc1cccc(Cl)c1)c1ccncc12 [silmitasertib]
Summary of the method: as §1

[9] = compound: O=C1NC(=O)C(c2cnc3ccccn23)=C1c1cn2c3c(cc(F)cc13)CN(C(=O)N1CCCCC1)CC2
Summary of the method: as §1

[10] = compound: c1cc(OCCN2CCCCC2)cc(-c2n[nH]c3ccc(-c4nnc[nH]4)cc23)c1
Summary of the method: as §1

[11] = compound: c1cn2cc(-c3ccc4cn[nH]c4c3)nc(Nc3ccc(N4CCOCC4)cc3)c2n1 [entospletinib]
Summary of the method: as §1

Measured: log2 fold change

AGPAT3 isoform 3 (UniProt Q9NRZ7)
inactive: [1] 0.008 | [2] -0.044 | [3] -0.141 | [4] -0.041 | [5] 0.004 | [6] 0.004 | [7] 0.029 | [8] 0.008 | [9] -0.079 | [10] -0.044

AFDN isoform 5 (UniProt P55196)
inactive: [1] -0.154 | [2] -0.009 | [3] -0.099 | [4] -0.025 | [5] 0.008 | [6] 0.019 | [7] 0.079 | [8] -0.012 | [9] -0.052 | [10] -0.068

AMFR (UniProt Q9UKV5)
inactive: [1] -0.024 | [2] -0.128 | [3] -0.115 | [4] -0.075 | [5] 0.051 | [6] 0.055 | [7] 0.012 | [8] 0.07 | [9] -0.032 | [10] 0.021

AFG3L2 (UniProt Q9Y4W6)
inactive: [1] -0.008 | [2] -0.002 | [3] -0.126 | [4] -0.031 | [5] 0.02 | [6] 0.065 | [7] 0.032 | [8] -0.001 | [9] 0.001 | [10] -0.017 | [11] -0.068

ADD1 isoform 3 (UniProt P35611)
inactive: [1] 0.03 | [2] -0.016 | [3] 0.034 | [4] -0.02 | [5] -0.071 | [6] 0.01 | [7] 0.034 | [8] -0.01 | [9] -0.06 | [10] 0.01

AMPD2 (UniProt Q01433)
inactive: [1] 0.091 | [2] -0.005 | [3] -0.044 | [4] 0.004 | [5] -0.037 | [6] 0 | [7] 0.024 | [8] -0.015 | [9] -0.01 | [10] -0.016 | [11] 0.023

AK1 (UniProt P00568)
inactive: [1] -0.038 | [2] -0.106 | [3] -0.096 | [4] -0.058 | [5] -0.014 | [6] 0.039 | [7] 0.017 | [8] -0.016 | [9] -0.04 | [10] -0.001 | [11] 0.063

AIMP2 (UniProt Q13155)
inactive: [1] 0.041 | [2] 0.002 | [3] 0.156 | [4] 0.104 | [5] -0.033 | [6] 0.037 | [7] -0.097 | [8] 0.166 | [9] 0.369 | [10] -0.151 | [11] 0.113

AKR1B1 (UniProt P15121)
inactive: [1] -0.093 | [2] -0.026 | [3] 0 | [4] -0.02 | [5] -0.072 | [6] 0.005 | [7] 0.037 | [8] -0.017 | [9] -0.062 | [10] -0.028 | [11] 0.018

AGPAT2 (UniProt O15120)
inactive: [1] 0.047 | [2] -0.083 | [3] -0.028 | [4] 0.054 | [5] 0.088 | [6] -0.063 | [7] -0.032 | [8] -0.047 | [9] -0.056 | [10] -0.01 | [11] 0.136

AFP (UniProt P02771)
inactive: [1] -0.146 | [2] 0.111 | [3] 0.179 | [4] 0.064 | [5] -0.003 | [6] 0.09 | [7] -0.071 | [8] 0.104 | [9] 0.238 | [10] 0.899 | [11] 0.374

ALDH6A1 (UniProt Q02252)
inactive: [1] -0.02 | [2] 0.034 | [3] -0.045 | [4] -0.116 | [5] -0.052 | [6] 0.021 | [7] 0.062 | [8] 0.048 | [9] -0.072 | [10] -0.043

ALG1 (UniProt Q9BT22)
inactive: [1] -0.056 | [2] -0.024 | [3] -0.19 | [4] -0.072 | [5] -0.06 | [6] -0.039 | [7] -0.004 | [8] -0.014 | [9] -0.043 | [10] 0.018 | [11] 0.074

AHCY (UniProt P23526)
inactive: [1] 0.061 | [2] 0.016 | [3] 0.059 | [4] 0.032 | [5] -0.006 | [6] -0.015 | [7] 0.02 | [8] -0.059 | [9] -0.007 | [10] -0.01 | [11] -0.004

ALG2 (UniProt Q9H553)
inactive: [1] -0.081 | [2] -0.036 | [3] -0.017 | [4] -0.061 | [5] 0.024 | [6] -0.026 | [7] -0.036 | [8] 0.072 | [9] -0.032 | [10] -0.029 | [11] 0.037

ALDH1A2 (UniProt O94788)
inactive: [1] 0.003 | [2] -0.011 | [3] 0.003 | [4] 0.008 | [5] -0.022 | [6] 0.064 | [7] -0.016 | [8] -0.012 | [9] -0.004 | [10] -0.023 | [11] 0.067

ADSS2 (UniProt P30520)
inactive: [1] -0.05 | [2] -0.056 | [3] -0.025 | [4] -0.035 | [5] -0.032 | [6] -0.029 | [7] 0.004 | [8] -0.05 | [9] -0.083 | [10] 0.011 | [11] 0.033

ALDH5A1 isoform 2 (UniProt P51649)
inactive: [1] 0.014 | [2] 0.01 | [3] -0.018 | [4] 0.026 | [5] -0.01 | [6] -0.027 | [7] 0.045 | [8] -0.003 | [9] -0.017 | [10] -0.025 | [11] 0.023

AKAP12 (UniProt Q02952)
inactive: [1] 0.061 | [2] -0.065 | [3] -0.126 | [4] 0.037 | [5] 0.049 | [6] 0.016 | [7] 0.034 | [8] -0.016 | [9] -0.006 | [10] -0.028 | [11] -0.025

ADPRHL2 (UniProt Q9NX46)
inactive: [1] -0.022 | [2] -0.02 | [3] -0.056 | [4] -0.045 | [5] 0.027 | [6] -0.039 | [7] 0.076 | [8] -0.045 | [9] -0.028 | [10] 0.055

ADRM1 (UniProt Q16186)
inactive: [1] -0.009 | [2] -0.045 | [3] -0.058 | [4] 0.006 | [5] -0.012 | [6] 0.038 | [7] 0.067 | [8] 0 | [9] 0.064 | [10] -0.052

AIDA (UniProt Q96BJ3)
inactive: [1] -0.056 | [2] -0.002 | [3] 0.003 | [4] -0.073 | [5] 0.029 | [6] 0.015 | [7] 0.043 | [8] 0.057 | [9] -0.069 | [10] -0.024 | [11] -0.071

Taken from the listing (two entries):
AMFR (UniProt Q9UKV5)
inactive: [1] -0.024 | [2] -0.128 | [3] -0.115 | [4] -0.075 | [5] 0.051 | [6] 0.055 | [7] 0.012 | [8] 0.07 | [9] -0.032 | [10] 0.021

AFG3L2 (UniProt Q9Y4W6)
inactive: [1] -0.008 | [2] -0.002 | [3] -0.126 | [4] -0.031 | [5] 0.02 | [6] 0.065 | [7] 0.032 | [8] -0.001 | [9] 0.001 | [10] -0.017 | [11] -0.068

Following part

ALKBH5 (UniProt Q6P6C2)
inactive: [1] 0.031 | [2] -0.021 | [3] 0.102 | [4] 0.052 | [5] -0.076 | [6] 0.18 | [7] 0.109 | [8] 0.033 | [9] 0.076 | [10] 0.042

AIFM1 (UniProt O95831)
inactive: [1] 0.013 | [2] -0.03 | [3] -0.007 | [4] -0.021 | [5] -0.014 | [6] -0.022 | [7] -0.018 | [8] -0.02 | [9] 0.011 | [10] -0.008 | [11] 0.001

AKR1A1 (UniProt P14550)
inactive: [1] -0.013 | [2] -0.008 | [3] -0.064 | [4] -0.025 | [5] -0.008 | [6] 0.008 | [7] 0.048 | [8] -0.009 | [9] -0.049 | [10] 0.017 | [11] -0.078

ADSS1 (UniProt Q8N142)
inactive: [1] -0.017 | [2] -0.038 | [3] -0.056 | [4] -0.048 | [5] 0 | [6] -0.001 | [7] 0.032 | [8] -0.028 | [9] -0.07 | [10] -0.063 | [11] 0.027

ALDOC (UniProt P09972)
inactive: [1] 0.046 | [2] -0.02 | [3] 0.028 | [4] 0.032 | [5] -0.022 | [6] -0.022 | [7] 0.008 | [8] 0.027 | [9] -0.025 | [10] -0.042 | [11] -0.013

AMD1 (UniProt P17707)
inactive: [1] 0.043 | [2] -0.091 | [3] -0.074 | [4] -0.149 | [5] -0.038 | [6] -0.093 | [7] 0.007 | [8] 0.004 | [9] -0.007 | [10] -0.08
